Laboratory results: patent US9040534B2, “[1,2,4]triazolo[4,3-a]pyrazines as P2X7 modulators” (Janssen Pharmaceutica NV, priority 2013, dated 2015)
The name of at least one read-out is uncertain.

Chains of the proteins cited; added tags and fusions are not shown. Lines headed by an entry give the natural chain unless they say otherwise; changes in a name come on top.
UniProt Q99572: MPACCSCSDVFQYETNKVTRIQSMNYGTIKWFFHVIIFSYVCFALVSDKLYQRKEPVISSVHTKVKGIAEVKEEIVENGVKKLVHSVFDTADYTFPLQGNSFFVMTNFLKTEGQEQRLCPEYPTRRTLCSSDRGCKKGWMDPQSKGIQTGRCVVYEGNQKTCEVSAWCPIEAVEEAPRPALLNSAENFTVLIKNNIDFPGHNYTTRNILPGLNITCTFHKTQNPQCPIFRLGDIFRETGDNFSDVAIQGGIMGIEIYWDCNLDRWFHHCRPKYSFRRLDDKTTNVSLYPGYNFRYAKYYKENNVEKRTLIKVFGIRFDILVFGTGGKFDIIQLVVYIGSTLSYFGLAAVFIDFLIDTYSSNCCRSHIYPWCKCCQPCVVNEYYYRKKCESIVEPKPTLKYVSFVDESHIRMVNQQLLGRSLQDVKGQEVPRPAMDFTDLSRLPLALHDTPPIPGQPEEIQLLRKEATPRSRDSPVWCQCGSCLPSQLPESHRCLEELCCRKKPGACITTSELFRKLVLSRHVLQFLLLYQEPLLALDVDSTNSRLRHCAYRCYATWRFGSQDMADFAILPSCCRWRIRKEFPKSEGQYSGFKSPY

Molecular target: P2X7 (Homo sapiens (Human), UniProt Q99572)
Assay: P2X7 antagonism in human PBMCs (LPS + Bz-ATP induced IL-1β release, ELISA)
Format: cell-based
Settings: 10 μM compound, 0.5 mM Bz-ATP
Procedure: Human blood was collected using a blood donor program. PBMCs were isolated from blood using a Ficoll density gradient technique. Briefly, blood was laid on Ficoll solution and centrifuged at RT for 20 minutes at 2000 rpm. The buffy layer (between red blood cells and plasma) was carefully collected by aspiration, washed with PBS and centrifuged again at 1500 rpm for 15 minutes. The resulting cell pellet was washed and plated on 96 well-plates for experiments. For the Mouse/Human Whole Blood experiments, 150 μl of either mouse or human blood was platted on 96 well-plates. Lipopolysaccharide (LPS) (30 ng/ml) was added to each well and incubated for 1 hour. Test compounds were then added and incubated for 30 minutes. The P2X7 agonist, 2′(3′)-O-(4-benzoylbenzoyl) adenosine 5′-triphosphate (Bz-ATP) was then added at a final concentration of 0.5 mM (PBMC) or 1 mM (blood). Cells were incubated for an additional 1.5 hours. At that point, supernatant was collected and stored for IL-1β assay using manufacturer's protocol for enzyme-linked immunosorbent assay (ELISA). Data was expressed as percent control, where control is defined as the difference in IL-1β release in LPS+Bz-ATP samples and LPS only samples. Data was plotted as response (% control) versus concentration to generate IC50 values. […]

In the case of `C[C@H]1Cn2c(nnc2-c2cnccn2)C(=O)N1Cc1cccc(Cl)c1Cl` [Example 13, (6S)-7-(2,3-Dichlorobenzyl)-6-methyl-3-pyrazin-2-yl-6,7-dihydro[1,2,4]triazolo[4,3-a]pyrazin-8(5H)-one], the “PBMC 10 μM (% control)” value was 15.4 % control.
